Source: patent US6452014B1, “Telomerase inhibitors and methods of their use” (Geron Corporation, priority 2000, dated 2002)
Some entries share one result that the patent states for a list of compounds.

Chains of the proteins cited; added tags and fusions are not shown. Lines headed by an entry give the natural chain unless they say otherwise; changes in a name come on top.
UniProt O14746: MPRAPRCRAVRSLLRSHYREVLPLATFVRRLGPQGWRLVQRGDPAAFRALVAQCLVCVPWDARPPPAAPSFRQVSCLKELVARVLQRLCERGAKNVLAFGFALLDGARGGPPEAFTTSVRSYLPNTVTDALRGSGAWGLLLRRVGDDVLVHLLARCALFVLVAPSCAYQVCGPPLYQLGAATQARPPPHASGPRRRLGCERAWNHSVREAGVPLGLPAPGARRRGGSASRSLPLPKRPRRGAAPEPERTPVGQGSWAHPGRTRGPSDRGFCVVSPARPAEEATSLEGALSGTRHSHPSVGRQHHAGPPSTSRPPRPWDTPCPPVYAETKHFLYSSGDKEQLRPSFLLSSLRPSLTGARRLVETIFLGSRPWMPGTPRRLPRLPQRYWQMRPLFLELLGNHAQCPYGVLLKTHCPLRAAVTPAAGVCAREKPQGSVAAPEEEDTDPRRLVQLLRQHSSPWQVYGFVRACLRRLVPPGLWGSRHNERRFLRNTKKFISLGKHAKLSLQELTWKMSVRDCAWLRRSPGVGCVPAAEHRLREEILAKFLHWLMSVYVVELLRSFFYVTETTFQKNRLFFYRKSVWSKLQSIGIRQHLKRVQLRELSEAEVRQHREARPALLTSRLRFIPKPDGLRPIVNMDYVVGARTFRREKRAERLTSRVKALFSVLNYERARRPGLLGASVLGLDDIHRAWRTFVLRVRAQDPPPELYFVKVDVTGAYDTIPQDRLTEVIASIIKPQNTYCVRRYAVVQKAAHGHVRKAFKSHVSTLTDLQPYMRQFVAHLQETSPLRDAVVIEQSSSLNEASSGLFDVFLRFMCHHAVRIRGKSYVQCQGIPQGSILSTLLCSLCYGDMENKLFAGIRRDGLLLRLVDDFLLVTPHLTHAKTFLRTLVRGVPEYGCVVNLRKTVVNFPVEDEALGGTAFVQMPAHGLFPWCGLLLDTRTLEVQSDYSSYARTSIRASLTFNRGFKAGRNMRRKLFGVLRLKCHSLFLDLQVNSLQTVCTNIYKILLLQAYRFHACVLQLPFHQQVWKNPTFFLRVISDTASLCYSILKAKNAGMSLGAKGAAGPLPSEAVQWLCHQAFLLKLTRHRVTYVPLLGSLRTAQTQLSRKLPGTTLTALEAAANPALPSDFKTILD

Biological target: T1, telomerase (Homo sapiens, UniProt O14746)
T1 construct: expressed in transfected cells; host or cells: 293 cells over-expressing hTERT
Assay: Bio-Tel FlashPlate telomerase activity assay
Assay type: biochemical
Settings: affinity-purified extract of 293 cells over-expressing hTERT

IC50, < 100 µM:
O=C1NC(=O)/C(=C/c2ccc(-c3nc4ccccc4s3)cc2)S1 [Example 34, 2-[4-(2,4-Dioxothiazolidin-5-ylidenemethyl)phenyl]benzothiazole]
O=C1NC(=O)/C(=C/c2ccc(-c3nc4cc(Cl)c(Cl)cc4[nH]3)nc2)S1 [Example 36, 5,6-Dichloro-2-[5-[(2,4-dioxothiazolidin-5-ylidene)methyl]pyridin-2-yl]benzimidazole]
O=C1NC(=O)/C(=C/c2ccc(-c3nc4cc(Cl)c(Cl)cc4n3Cc3ccc4ccccc4n3)cc2)S1 [Example 26, 5,6-Dichloro-2-[4-[(2,4-dioxothiazolidin-5-ylidene)methyl]phenyl]-1-(quinolin-2-ylmethyl)benzimidazole]
O=C1NC(=O)/C(=C/c2ccc(-c3nc4c(C(F)(F)F)cc(Cl)cc4[nH]3)cc2)S1 [Example 5, 6-Chloro-2-[4-[(2,4-dioxothiazolidin-5-ylidene)methyl]phenyl]-4-(trifluoromethyl)benzimidazole]
COCn1c(-c2cc3cc(/C=C4\SC(=O)NC4=O)ccc3[nH]2)nc2cc(Cl)c(Cl)cc21 [Example 47, 5,6-Dichloro-2-[5-[(2,4-dioxothiazolidin-5-ylidene)methyl]indol-2-yl]-(methoxymethyl)benzimidazole]
O=C1NC(=O)/C(=C/c2ccc(-c3nc4cc(Cl)c(Cl)cc4[nH]3)c3ccccc23)S1 [Example 39, 5,6-Dichloro-2-[4-[(2,4-dioxothiazolidin-5-ylidene)methyl]naphth-1-yl]benzimidazole]
O=C1NC(=O)/C(=C/c2ccc(-c3nc4cc(Cl)c(Cl)cc4n3Cc3cscn3)cc2)S1 [Example 27, 5,6-Dichloro-2-[4-[(2,4-dioxothiazolidin-5-ylidene)methyl]phenyl]-1-(thiazol-4-ylmethyl)benzimidazole]
Cc1cc2nc(-c3ccc(/C=C4\SC(=O)NC4=O)cc3)[nH]c2cc1C [Example 3, 5,6-Dimethyl-2-[4-[(2,4-dioxothiazolidin-5-ylidene)methyl]phenyl]benzimidazole]
O=C1NC(=O)/C(=C/c2ccc(-c3nc4c(O)cccc4[nH]3)cc2)S1 [Example 12, 2-[4-[(2,4-Dioxothiazolidin-5-ylidene)methyl]phenyl]-4-hydroxybenzimidazole]
Cc1cc(/C=C2\SC(=O)NC2=O)c(C)nc1-c1nc2cc(Cl)c(Cl)cc2[nH]1 [Example 42, 2-[3,6-Dimethyl-5-(2,4-dioxothiazolidin-5-ylidenemethyl)pyridin-2-yl]-5,6-dichlorobenzimidazole]
CCCCn1c(-c2nc3cc(Cl)c(Cl)cc3n2COC)cc2cc(/C=C3\SC(=O)NC3=O)ccc21 [Example 50, 5,6-Dichloro-2-[1-butyl-5-[(2,4-dioxothiazolidin-5-ylidene)methyl]indol-2-yl]-1-(methoxymethyl)benzimidazole]
Cn1c(/C=C2\SC(=O)NC2=O)ccc1-c1nc2cc(Cl)c(Cl)cc2[nH]1 [Example 33, 2-[2-[(2,4-Dioxothiazolidin-5-ylidene)methyl]-1-methylpyrrol-5-yl]-5,6-dichlorobenzimidazole]
Cn1c(-c2nc3cc(Cl)c(Cl)cc3[nH]2)cc2cc(/C=C3\SC(=O)NC3=O)ccc21 [Example 49, 5,6-Dichloro-2-[5-[(2,4-dioxothiazolidin-5-ylidene)methyl]-1-methylindol-2-yl]benzimidazole]
O=C1NC(=O)/C(=C/c2ccc3cc(-c4nc5cc(Cl)c(Cl)cc5[nH]4)ccc3c2)S1 [Example 40, 5,6-Dichloro-2-[6-[(2,4-dioxothiazolidin-5-ylidene)methyl]naphth-2-yl]benzimidazole]
O=C1NC(=O)C(c2ccc(-c3nc4cc(Cl)c(Cl)cc4[nH]3)cc2)S1 (stereo not drawn) [Example 13, 5,6-Dichloro-2-[4-(2,4-dioxothiazolidin-5-yl)phenyl]benzimidazole]
O=C1NC(=O)/C(=C/c2cc(Br)c(-c3nc4cc(Cl)c(Cl)cc4[nH]3)s2)S1 [Example 29, 5,6-Dichloro-2-[3-bromo-5-[(2,4-dioxothiazolidin-5-ylidene)methyl]thiophen-2-yl]benzimidazole]
O=C1NC(=O)/C(=C/c2ccc(-c3nc4cc(Cl)c(Cl)cc4[nH]3)s2)S1 [Example 32, 5,6-Dichloro-2-[2-[(2,4-dioxothiazolidin-5-ylidene)methyl]thiophen-5-5-yl]benzimidazole]
O=C1NC(=O)C(Cc2ccc(-c3nc4cc(Cl)c(Cl)cc4[nH]3)cc2)S1 (stereo not drawn) [Example 28, 2-[4-[(2,4-Dioxothiazolidin-5-yl)methyl]phenyl]-5,6-dichlorobenzimidazole]
Cc1cc2nc(-c3ccc(/C=C4\SC(=O)NC4=O)cc3)n(Cc3ccc(Cl)c(Cl)c3)c2cc1C [Example 15, 1-(3,4-Dichlorobenzyl)-5,6-dimethyl-2-[4-[(2,4-dioxothiazolidin-5-ylidene)methyl]phenyl]benzimidazole]
N#Cc1ccc2[nH]c(-c3ccc(/C=C4\SC(=O)NC4=O)cc3)nc2c1 [Example 8, 5-Cyano-2-[4-[(2,4-dioxothiazolidin-5-ylidene)methyl]phenyl]benzimidazole]
O=C1NC(=O)/C(=C/c2ccc(-c3nc4c(Cl)c(Cl)ccc4[nH]3)cc2)S1 [Example 9, 4,5-Dichloro-2-[4-[(2,4-dioxothiazolidin-5-ylidene)methyl]phenyl]benzimidazole]
Cc1nc2cc(Cl)c(Cl)cc2n1-c1ccc(/C=C2\SC(=O)NC2=O)cc1 [Example 55, 5,6-Dichloro-1-[[4-(2,4-dioxothiazolidin-5-ylidene)methyl]phenyl]-2-methylbenzimidazole]
O=C1NC(=O)/C(=C/c2ccc(-c3nc4cc(F)c(F)cc4[nH]3)cc2)S1 [Example 11, 5,6-Difluoro-2-[4-[(2,4-dioxothiazolidin-5-ylidene)methyl]phenyl]benzimidazole]
CCCCn1c(-c2ccc(/C=C3\SC(=O)NC3=O)cc2)nc2cc(Cl)c(Cl)cc21 [Example 18, 1-Butyl-5,6-dichloro-2-[4-[(2,4-dioxothiazolidin-5-ylidene)methyl]phenyl]benzimidazole]
Cc1cc(-c2nc3cc(Cl)c(Cl)cc3[nH]2)c(C)nc1/C=C1\SC(=O)NC1=O [Example 41, 5,6-Dichloro-2-[2,5-dimethyl-6-[(2,4-dioxothiazolidin-5-ylidene)methyl]pyridin-3-yl]benzimidazole]
O=C1NC(=O)/C(=C/c2ccc(-c3nc4cc(Cl)c(Cl)cc4[nH]3)o2)S1 [Example 30]
O=C1NC(=O)/C(=C/c2ccc(-c3nc4c(Cl)cc(Cl)cc4[nH]3)cc2)S1 [Example 10, 4,6-Dichloro-2-[4-[(2,4-dioxothiazolidin-5-ylidene)methyl]phenyl]benzimidazole]
O=C1NC(=O)/C(=C/c2ccc(-c3nc4cc(C(=O)c5ccccc5)ccc4[nH]3)cc2)S1 [Example 6, 5-Benzoyl-2-[4-[(2,4-dioxothiazolidin-5-ylidene)methyl]phenyl]benzimidazole]
COC(=O)c1ccc(Cn2c(-c3ccc(/C=C4\SC(=O)NC4=O)cc3)nc3cc(Cl)c(Cl)cc32)cc1 [Example 23, Methyl 4-[5,6-Dichloro-2-[4-[(2,4-dioxothiazolidin-5-ylidene)methyl]phenyl]benzimidazol-1-ylmethyl]benzoate]
COCn1c(-c2cc3cc(/C=C4\SC(=O)NC4=O)ccc3n2CCN(C)C)nc2cc(Cl)c(Cl)cc21 [Example 52, 5,6-Dichloro-2-[1-[2-(dimethylamino)ethyl]-5-[(2,4-dioxothiazolidin-5-ylidene)methyl]indol-2-yl]-1-(methoxymethyl)benzimidazole]
O=C1NC(=O)/C(=C/c2ccc(-c3nc4cc(Cl)c(Cl)cc4n3Cc3ccc(Cl)c(Cl)c3)cc2)S1 [Example 16, 5,6-Dichloro-1-(3,4-dichlorobenzyl)-2-[4-[(2,4-dioxothiazolidin-5-ylidene)methyl]phenyl]benzimidazole]
O=C1NC(=O)/C(=C/c2ccc3[nH]c(-c4nc5cc(Cl)c(Cl)cc5[nH]4)cc3c2)S1 [Example 45, 5,6-Dichloro-2-[5-[(2,4-dioxothiazolidin-5-ylidene)methyl]indol-2-yl]benzimidazole]
Cn1c(-c2ccc(/C=C3\SC(=O)NC3=O)cc2)nc2cc(Cl)c(Cl)cc21 [Example 17, 5,6-Dichloro-2-[4-[(2,4-dioxothiazolidin-5-ylidene)methyl]phenyl]-1-methylbenzimidazole]
O=C1NC(=O)/C(=C/c2ccc(-n3cnc4cc(Cl)c(Cl)cc43)cc2)S1 [Example 54, 5,6-Dichloro-1-[[4-(2,4-dioxothiazolidin-5-ylidene)methyl]phenyl]benzimidazole]
O=C1NC(=O)/C(=C/c2ccc(-c3nc4cc(Cl)c(Cl)cc4[nH]3)cc2)S1 [Example 1, 5,6-Dichloro-2-[4-[(2,4-dioxothiazolidin-5-ylidene)methyl]phenyl]benzimidazole]
O=C1NC(=O)/C(=C/c2ccc(-c3nc4cc(Cl)c(Cl)cc4n3Cc3ccc(Cl)s3)cc2)S1 [Example 25, 1-(5-chlorothiophen-2-ylmethyl)-5,6-dichloro-2-[4-[(2,4-dioxothiazolidin-5-ylidene)methyl]phenyl]benzimidazole]
O=C1NC(=O)/C(=C/c2ccc(-c3nc4cc(Cl)c(Cl)cc4[nH]3)c(F)c2)S1 [Example 38, 5,6-Dichloro-2-[4-[(2,4-dioxothiazolidin-5-ylidene)methyl]-2-fluorophenyl]benzimidazole]
CCCCn1c(-c2nc3cc(Cl)c(Cl)cc3[nH]2)cc2cc(/C=C3\SC(=O)NC3=O)ccc21 [Example 51, 5,6-Dichloro-2-[1-butyl-5-[(2,4-dioxothiazolidin-5-ylidene)methyl]indol-2-yl]benzimidazole]
O=C1NC(=O)/C(=C/c2ccc(-c3nc4cc(Cl)c(Cl)cc4n3Cc3ccccc3)cc2)S1 [Example 22, 1-Benzyl-5,6-dichloro-2-[4-[(2,4-dioxothiazolidin-5-ylidene)methyl]phenyl]benzimidazole]
